Reference: article PMC11864691
No constants are given. Whether binding was seen depends on the method and setting. Binding seen in cells or lysates may run through a third protein.

By UniProt entry, the sequences of proteins in these tests, tags left out. Where a name states a change or a piece, a line headed by the entry shows the natural chain unless it says otherwise.
UniProt P11142: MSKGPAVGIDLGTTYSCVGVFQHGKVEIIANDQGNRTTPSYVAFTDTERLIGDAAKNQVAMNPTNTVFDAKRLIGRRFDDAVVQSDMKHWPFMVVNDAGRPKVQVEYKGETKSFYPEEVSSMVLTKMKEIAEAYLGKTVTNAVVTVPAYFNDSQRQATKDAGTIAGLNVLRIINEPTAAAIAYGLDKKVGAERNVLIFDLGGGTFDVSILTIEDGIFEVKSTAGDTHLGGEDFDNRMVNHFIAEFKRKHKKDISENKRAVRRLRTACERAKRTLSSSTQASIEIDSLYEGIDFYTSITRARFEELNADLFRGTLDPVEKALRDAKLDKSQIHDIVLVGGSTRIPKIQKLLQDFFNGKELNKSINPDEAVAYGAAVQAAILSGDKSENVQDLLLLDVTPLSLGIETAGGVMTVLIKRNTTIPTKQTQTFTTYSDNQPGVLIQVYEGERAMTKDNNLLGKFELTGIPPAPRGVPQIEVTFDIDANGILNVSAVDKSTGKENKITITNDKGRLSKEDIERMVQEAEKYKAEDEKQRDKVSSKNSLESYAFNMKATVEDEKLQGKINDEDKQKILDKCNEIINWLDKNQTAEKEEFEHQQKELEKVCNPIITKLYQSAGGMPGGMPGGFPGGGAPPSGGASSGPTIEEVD
UniProt O75907: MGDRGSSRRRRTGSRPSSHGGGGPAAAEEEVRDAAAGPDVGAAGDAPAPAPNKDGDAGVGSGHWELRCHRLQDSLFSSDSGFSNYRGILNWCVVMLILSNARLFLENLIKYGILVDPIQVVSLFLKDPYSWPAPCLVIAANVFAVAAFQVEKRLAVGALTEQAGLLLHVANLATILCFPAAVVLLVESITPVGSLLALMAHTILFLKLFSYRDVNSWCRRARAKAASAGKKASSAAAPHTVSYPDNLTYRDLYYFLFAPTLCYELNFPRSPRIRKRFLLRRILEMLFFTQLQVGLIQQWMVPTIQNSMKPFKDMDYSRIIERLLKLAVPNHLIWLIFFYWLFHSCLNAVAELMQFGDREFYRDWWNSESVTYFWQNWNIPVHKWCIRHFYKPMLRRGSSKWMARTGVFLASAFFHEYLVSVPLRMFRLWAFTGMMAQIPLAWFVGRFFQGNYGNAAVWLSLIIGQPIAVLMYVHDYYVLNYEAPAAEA

Target: heat shock cognate 70 kDa protein (HSC70) (human (endogenous in Huh-7.5)) (UniProt P11142)
Experiment: co-IP; Huh-7.5 cells transfected with pCAG-FLAG-DGAT1 or pCAG-FLAG-DGAT1 Q149A, harvested 48 h after transfection; lysate precipitated with anti-HSC70 mouse mAb; endogenous HSC70 is the bait; blot with anti-FLAG mAb

With FLAG-DGAT1 Q149A (from UniProt O75907) the binding was “no binding”.
